Results reported in article PMC8342551.
Where two headings read alike, the source gives them in different places. These are yes or no findings as the source states them, for the method shown. In cells and extracts the contact can be indirect. These calls come from enrichment with a bait or labelling near it, and not all partners need be listed. For part of these data: No binding means not detected with the bait. Where a sequence is shown, tags or fusion partners need not be part of it. One block for each molecule: values may come before it.

What was measured:
Assay in all cases: affinity purification with mass spectrometry; Co-IPs cross-performed on lysates of spleen primary erythroid cells from recipients of FLAG-YPEL4 or YPEL4-HA transduced Ypel4-/- c-Kit+ cells (day 16); nano LC-MS with TMT quantification, tagged against control samples
[1] = biological target: T1, FLAG-YPEL4 (UniProt Q65Z93)
T1 sequence: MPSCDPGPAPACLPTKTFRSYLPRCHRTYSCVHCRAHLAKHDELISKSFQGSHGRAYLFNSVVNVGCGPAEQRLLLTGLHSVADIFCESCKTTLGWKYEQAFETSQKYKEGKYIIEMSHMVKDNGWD

[2] = biological target: T2, YPEL4-HA (UniProt Q65Z93)
T2 sequence: T1 sequence

[3] = biological target: T1, FLAG-YPEL4; remark: listed apart in the source
[4] = biological target: T2, YPEL4-HA; remark: listed apart in the source

binding [1]: binds | binding [2]: binds
Molecule: alpha-tubulin

binding [1]: binds | binding [2]: binds
Molecule: beta-tubulin

binding [3]: no binding | binding [4]: no binding
B1: Band 3 protein (protein, UniProt P04919 1-929)
chain: MGDMRDHEEVLEIPDRDSEEELENIIGQIAYRDLTIPVTEMQDPEALPTEQTATDYVPSSTSTPHPSSGQVYVELQELMMDQRNQELQWVEAAHWIGLEENLREDGVWGRPHLSYLTFWSLLELQKVFSKGTFLLGLAETSLAGVANHLLDCFIYEDQIRPQDREELLRALLLKRSHAEDLGNLEGVKPAVLTRSGGASEPLLPHQPSLETQLYCGQAEGGSEGPSTSGTLKIPPDSETTLVLVGRANFLEKPVLGFVRLKEAVPLEDLVLPEPVGFLLVLLGPEAPHVDYTQLGRAAATLMTERVFRITASMAHNREELLRSLESFLDCSLVLPPTDAPSEKALLNLVPVQKELLRRRYLPSPAKPDPNLYNTLDLNGGKGGPGDEDDPLRRTGRIFGGLIRDIRRRYPYYLSDITDALSPQVLAAVIFIYFAALSPAVTFGGLLGEKTRNLMGVSELLISTAVQGILFALLGAQPLLVLGFSGPLLVFEEAFFSFCESNNLEYIVGRAWIGFWLILLVMLVVAFEGSFLVQYISRYTQEIFSFLISLIFIYETFSKLIKIFQDYPLQQTYAPVVMKPKPQGPVPNTALFSLVLMAGTFLLAMTLRKFKNSTYFPGKLRRVIGDFGVPISILIMVLVDSFIKGTYTQKLSVPDGLKVSNSSARGWVIHPLGLYRLFPTWMMFASVLPALLVFILIFLESQITTLIVSKPERKMIKGSGFHLDLLLVVGMGGVAALFGMPWLSATTVRSVTHANALTVMGKASGPGAAAQIQEVKEQRISGLLVSVLVGLSILMEPILSRIPLAVLFGIFLYMGVTSLSGIQLFDRILLLFKPPKYHPDVPFVKRVKTWRMHLFTGIQIICLAVLWVVKSTPASLALPFVLILTVPLRRLILPLIFRELELQCLDGDDAKVTFDEENGLDEYDEVPMPV
